The text below walks through data of PMC7511233.

Sequences of proteins named here, by UniProt entry; tags and fusion partners are left off. A change or cut given only in a name is not applied to a line headed by its entry. Residues count along the entry.
UniProt Q5KU26: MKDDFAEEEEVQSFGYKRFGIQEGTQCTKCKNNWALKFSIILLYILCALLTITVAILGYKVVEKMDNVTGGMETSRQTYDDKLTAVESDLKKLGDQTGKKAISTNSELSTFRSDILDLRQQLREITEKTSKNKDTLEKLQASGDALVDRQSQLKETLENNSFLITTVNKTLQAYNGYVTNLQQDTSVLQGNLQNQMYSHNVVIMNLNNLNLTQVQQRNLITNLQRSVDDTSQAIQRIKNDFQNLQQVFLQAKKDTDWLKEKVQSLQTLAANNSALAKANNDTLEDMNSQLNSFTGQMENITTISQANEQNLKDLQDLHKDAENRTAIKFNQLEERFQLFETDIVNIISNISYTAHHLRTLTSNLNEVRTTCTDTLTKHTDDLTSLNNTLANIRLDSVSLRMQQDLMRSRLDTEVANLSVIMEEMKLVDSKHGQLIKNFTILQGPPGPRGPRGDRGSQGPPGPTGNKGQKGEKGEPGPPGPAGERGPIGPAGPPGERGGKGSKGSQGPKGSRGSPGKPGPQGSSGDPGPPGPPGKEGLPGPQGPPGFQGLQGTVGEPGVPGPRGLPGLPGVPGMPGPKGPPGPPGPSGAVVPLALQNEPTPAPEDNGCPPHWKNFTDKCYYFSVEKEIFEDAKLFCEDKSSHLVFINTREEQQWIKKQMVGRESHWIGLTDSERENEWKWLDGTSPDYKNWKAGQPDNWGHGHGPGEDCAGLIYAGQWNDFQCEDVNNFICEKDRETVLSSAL
UniProt P27918, residues 28-469: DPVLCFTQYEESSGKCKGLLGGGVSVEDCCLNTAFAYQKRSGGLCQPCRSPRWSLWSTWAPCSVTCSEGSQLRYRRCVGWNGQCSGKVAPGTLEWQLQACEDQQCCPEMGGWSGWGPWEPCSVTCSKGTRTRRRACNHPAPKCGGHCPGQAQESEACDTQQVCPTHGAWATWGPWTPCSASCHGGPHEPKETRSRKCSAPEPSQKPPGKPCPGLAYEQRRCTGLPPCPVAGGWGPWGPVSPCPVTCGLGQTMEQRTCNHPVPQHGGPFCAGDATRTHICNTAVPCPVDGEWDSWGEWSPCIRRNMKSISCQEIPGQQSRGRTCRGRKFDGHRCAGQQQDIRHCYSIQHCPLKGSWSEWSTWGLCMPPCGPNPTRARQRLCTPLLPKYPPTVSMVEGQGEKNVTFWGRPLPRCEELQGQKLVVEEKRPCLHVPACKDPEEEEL

The target in experiment [1] is recombinant soluble CL-12 (UniProt Q5KU26). The experiment is described as follows: flow cytometry on cells; A. niger conidia with sCL-12, then fP-Dpl restored with serum properdin or properdin variants (10 µg/ml; properdin tetramer 20 µg/ml in Figure 5E), as described for A. fumigatus; only the target purified. On the technique in general: In flow cytometry, cells or beads pass a laser one at a time.

Experiment [2] shares this target. The experiment is described as follows: flow cytometry on cells; A. niger conidia with sCL-12, then C3-depleted serum (C3-Dpl), as described for A. fumigatus; only the target purified.
The target is the same in experiment [3]. The experiment is described as follows: flow cytometry on cells; A. fumigatus conidia pre-incubated with sCL-12 (5 µg/ml), then NHS (20%) in TBS/EGTA-Mg2+ (10 mM Tris/150 mM NaCl/10 mM EGTA/5 mM Mg2+, pH 7.4), without Cp40; properdin detected with sheep anti-human properdin pAb; only the target purified.
Experiment [4] shares this target. The experiment is described as follows: flow cytometry on cells; A. fumigatus conidia pre-incubated with sCL-12 (5 µg/ml), then NHS (20%) preincubated with the C3 inhibitor Cp40 (6 µM), TBS/EGTA-Mg2+; properdin detected with sheep anti-human properdin pAb; only the target purified.
The target is the same in experiment [5]. The experiment is described as follows: flow cytometry on cells; A. fumigatus conidia pre-incubated with sCL-12 (5 µg/ml), then C3-depleted serum (C3-Dpl, 11.1 ~ 100%); % positive events with respect to C3-Dpl alone; only the target purified.
Experiment [6] has the same target. The experiment is described as follows: flow cytometry on cells; A. niger conidia with sCL-12, then NHS in the presence of Cp40, as described for A. fumigatus; only the target purified.
Experiment [7] shares this target. The experiment is described as follows: flow cytometry on cells; A. fumigatus conidia pre-incubated with sCL-12 (5 µg/ml), then properdin-depleted serum (fP-Dpl, 10%) treated with Cp40 (6 µM) plus purified serum properdin (10 µg/ml) or properdin variants, EGTA-Mg2+ buffer; variants read as % properdin/CL-12-double positive events; only the target purified.

No constants are given. Whether binding was seen depends on the method and setting. Binding calls can cover weak binding; strength is not graded here.

Regarding “purified serum properdin (from UniProt P27918 28-469)”, in experiment [1], the binding entry is “binds”.

In the case of “properdin in normal human serum (from UniProt P27918 28-469)”, the binding result in experiment [2], in experiment [3], in experiment [4], in experiment [5] and in experiment [6] was “binds” throughout.

For “recombinant wild type properdin, dimer and trimer fraction (from UniProt P27918 28-469)”, the binding entry is listed as “no binding” in experiment [7] and “no binding (tested: 10 µg/ml)” in experiment [1].

Regarding “recombinant wild type properdin, tetramer fraction (from UniProt P27918 28-469)”, the binding result in experiment [7] and in experiment [1] was “binds” throughout.
